The values below come from publication PMC11239879.

The chains behind the UniProt entries cited, without tags or fusion partners.
UniProt Q61025: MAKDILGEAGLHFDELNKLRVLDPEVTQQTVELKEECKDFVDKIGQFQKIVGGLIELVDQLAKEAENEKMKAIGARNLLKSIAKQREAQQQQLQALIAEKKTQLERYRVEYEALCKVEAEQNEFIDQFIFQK
UniProt Q8IY31: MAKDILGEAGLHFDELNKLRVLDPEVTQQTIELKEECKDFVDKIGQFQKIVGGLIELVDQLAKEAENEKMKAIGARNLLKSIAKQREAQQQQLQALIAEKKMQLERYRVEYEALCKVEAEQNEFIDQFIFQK

Results are given in words; binding and its absence hold for the method and conditions named. In cells and extracts the contact can be indirect. Some entries that bind do so weakly or less than the wild type. Sequences can lack the tags named with a protein.

Assay [1] concerns the target eGFP-DLG1 (Rattus norvegicus DLG1/pEGFP-C1) (rat (Rattus norvegicus)). Kind of assay: co-IP; immunoprecipitation with anti-GFP beads from lysates of HEK293T cells transiently co-expressing a GFP fusion and a FLAG fusion; washing buffer with 0.1% NP-40; pellets blotted with anti-FLAG and anti-GFP; GFP alone as negative control.
Assay [2] concerns the target IFT20-eGFP (Mus musculus IFT20/pEGFP-N1) (mouse (Mus musculus)) (UniProt Q61025). The assay is described as above.

“FLAG-IFT20 (Homo sapiens IFT20/pcDNA5.1-6xHis-3xFLAG-TEV) (from UniProt Q8IY31 1-132)”: the binding entry in assay [1] is listed as “binds”.

B1: FLAG-Myc-SDCCAG3 (Mus musculus SDCCAG3/pCMV6-Myc-DDK) (protein, UniProt A2AIW0 1-432)
chain: MSGYARRQGAPPLSRTRSLVVPDAPAFYERRSCLPQLDCERPHGGDLHPHLFGFRPTFMCYVPSPVLASVGDTGFGYGKGKCTNQGPSGAPETRFGGDKLEDLEEANPFSFKEFLKTKNLSLSKEDTTTSRIYPKEASRHPLGLEHSSPASQLMGYGLESQQPFFEDPTRASNLEEDEDDGWNITYLPSAVDQTHSSRDTQDSPPCDTYLSFFSNSSELACPESLPPWTLSDTDSRISPASPAGSPNADFAAHEESLGDRHLRTLQISYEALKDENSKLRRKLNEVQSFSETQTEMVRTLERKLEAKMIKEESDFHDLESVVQQVEQNLELMTKRAVKAENHVLKLKQEINLLQAQLSNLRRENEALRSGQGASLSVVKQNTDVALQNLHLVMNSAHASIKQLVSGADTLNLVAEILKSIDRISEVKDEVDS
With B1, the binding entry in assay [2] and in assay [1] was “binds” in each case.
